The record followed here is publication PMC10377357 (2023).

Amino acid sequences for entries named in this document (tags omitted). A change or cut given only in a name is not applied to a line headed by its entry.
UniProt P25443: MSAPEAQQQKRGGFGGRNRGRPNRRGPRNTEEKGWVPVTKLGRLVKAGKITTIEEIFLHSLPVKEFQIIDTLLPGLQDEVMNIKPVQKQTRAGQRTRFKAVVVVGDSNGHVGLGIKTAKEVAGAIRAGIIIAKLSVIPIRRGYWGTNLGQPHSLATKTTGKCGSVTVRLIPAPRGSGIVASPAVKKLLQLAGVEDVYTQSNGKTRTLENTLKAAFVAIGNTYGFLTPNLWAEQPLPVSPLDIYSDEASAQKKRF

Results are given in words; binding and its absence hold for the method and conditions named. Binding calls can cover weak binding; strength is not graded here.

Assay [1] concerns the target Rps2 missing the N-terminal ten amino acids, G4BD fusion (S. cerevisiae) (UniProt P25443). Briefly: two-hybrid; Yeast strain PJ69-4A; Rps2 variants C-terminally fused to the Gal4 DNA-binding domain, full-length Tsr4 C-terminally fused to the Gal4 activation domain, CEN low-copy plasmids; growth on -HLT (weak) and -ALT (strong), 3 days at 30 °C.
Assay [2] addresses Rps2 missing the N-terminal five amino acids, G4BD fusion (S. cerevisiae) (UniProt P25443). The description is as above.

B1: full-length Tsr4-G4AD (protein, UniProt P25040 1-408)
chain: MSKIEELPPSDTDDHSYSSKPGDVFLAFVDAPVKETDDILVEDSFIGGEPKWLHPDSEPPAELLKCGACKSADNMKLLLQAFSPLDDEQMSAIQQRLGINNMSYINPQDDRVLYVFLCTECQRKGNSVRCIRGVKKNKNVDSLSEKMASTSLEKDFQINPFDLSNNSDSKCNAFSSNPFGGANANPFGADSINSNISQSKDEGKKKESATVSAKTARKLHDLQKDKEYDGNKCFKSCLLYVEEETFKNKKPAHLQLPKNLKIDKEALDLTGDEDLEKDPIKLDPRTEKLSKFLDDDTFQKFQEVVGYNPLQVLRYDLGGKPLLYAETKVDILSTVPRPGYNPSSQRIFEMQLMPKMIFDLEEVVSVDNGMEWGTILVFTDVENYMPEFDEHGVGYVEECVKVQWESRT
B1: the binding result in assay [1] and in assay [2] was “binds” in each case.
